According to PubChem BioAssay AID493014 (National Center for Advancing Translational Sciences (NCATS), 2011):
Among all 340,000 compounds or so, about 170 (0.05%) were called active. This list was built around the results that the source calls inconclusive (neither active nor inactive); the mix of calls is not that of the screen. Calls follow the shape of the dose curve; as a rule, active = well fitted inhibition curve with a large enough effect in the signal ratio, with a control signal flat (not every such curve was filed as active); inconclusive = small, poorly fitted or top-dose-only effect, or effect the other way, or a change in a side signal; inactive = flat fitted curve, though single readings scatter; the % refers to the signal ratio. Potencies beside an inconclusive call are fits to weak or partial responses and may not hold up.

Assay: qHTS Assay to Find Inhibitors of Chronic Active B-Cell Receptor Signaling;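 as to activity change, negative = inhibition: plate controls were basal doxycycline-induced cells for no effect and cells given 10 µM MG132 for full effect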
Conditions: ABC-DLBCL IkBa-CBG/CBR reporter, luminescence ratio (green luciferase fused to IkBa over red control in TMD8 lymphoma cells), 4 h; activity change, negative = inhibition: at 46.1 µM (top of the series) unless noted
Method in brief: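 TMD8 human ABC-DLBCL cells with doxycycline-inducible IκBα–green luciferase fusion and unfused red luciferase, in 0.5% FBS medium; compounds up to 46 uM, 4 h at 37C. Green/red luminescence ratio, filter-overlap corrected, fitted to concentration-response curves.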
Potency is read from the fitted curve at half-maximal effect.

| SMILES | activity change, negative = inhibition | Potency |
| --- | --- | --- |
| CN=c1scc(-c2ccccc2F)n1/N=C/c1ccc(O)c(O)c1O | inactive: -16.8% |  |
| Cc1c(Cl)cccc1NC(=O)CCCN1C(=O)CCC1=O | inconclusive: 0.879% |  |
| C=C(C)c1cccc(C(C)(C)NC(=O)Nc2ccc(C)cn2)c1 | inconclusive: 5.4% |  |
| C/C(=N\NC(=S)NCCc1ccccc1)c1cccs1 | inconclusive: 10.8% |  |
| CCNC(=O)C/C(C)=N/NC(=O)C1CCCCC1 | inactive: -9.8% |  |
| O=C(Oc1cc(=O)oc2ccccc12)c1ccco1 | inconclusive: -24.3% |  |
| CC(C)Cc1nnc(NC(=O)CN2C(=O)C3CCCCC3C2=O)s1 (stereo not drawn) | inconclusive: 3.43% |  |
| O=C(NCCC1=CCCCC1)C1CCN(S(=O)(=O)c2cccc3cccnc23)CC1 | inactive: 6.32% |  |
| COc1cccc(-c2cc(C(=O)NCc3ccco3)no2)c1 |  | inconclusive: 23.1 µM [falling, partial curve] |
| O=C(CCCN1CCOCC1)c1ccc2c(c1)OCCO2 | inconclusive: 0.414% |  |
| Cc1ccc(C2C3=C(CC(C)(C)CC3=O)Nc3onc(C)c32)cc1 (stereo not drawn) | inconclusive: 20.5% |  |
| Cc1cc(NC(=O)CSc2ccccn2)cc(NC(=O)CSc2ccccn2)c1 | inconclusive: 1.17% |  |
| COCCSc1ccccc1C(=O)NCc1cccnc1 | inconclusive: -3.76% |  |
| CCOC(=O)c1ccc(Oc2nc(NC)nc(SC)n2)cc1 | inconclusive: 5% |  |
| C=CC[n+]1c(/C=C/c2ccc(OC(C)=O)c(OC)c2)ccc2ccccc21 | inconclusive: 11.8% |  |
| COc1ccc(C(=O)Nc2ccc(NC(=O)c3cccc(OC)c3)cn2)cc1 | inconclusive: 19.9% |  |
| O=[N+]([O-])c1cc(C(F)(F)F)cc([N+](=O)[O-])c1Sc1n[nH]c(C(F)(F)F)n1 | inconclusive: -14.5% |  |
| COc1ccc(OC)c(C2NC(=O)NC(C)=C2C(=O)OCc2ccccc2)c1 (stereo not drawn) | inactive: -9.68% |  |
| O=C1CCC/C1=C/Nc1ccc(Cl)cc1 | inconclusive: 19.3% |  |
| N#C/C(=C(/O)COC(=O)c1ccccc1O)c1nc2ccccc2s1 | inconclusive: -7.67% |  |
| COc1ccc(C(=O)NC2CCN(C(=S)Nc3ccc(C)c(C)c3)CC2)cc1 | inconclusive: -0.0012% |  |
| COc1ccc(N=Cc2nc(-c3ccccc3)oc2OC(=O)c2ccccc2)cc1 |  | inconclusive: 20.6 µM [falling, partial curve] |
| O=C(/C=C/c1ccco1)NC(=S)Nc1cccc(-c2nc3ccccc3o2)c1 |  | inconclusive: 7.08 µM [falling, full curve] |
| CCCCC(=O)N=c1sc2cc([N+](=O)[O-])ccc2n1C | inconclusive: 6.72% |  |
| Cc1ccccc1OCC(=O)N/N=C/c1ccccn1 | inconclusive: -16.9% |  |
| O=C(O)CSc1nc2c(cnn2-c2ccccc2)c(=O)n1-c1ccc(Br)cc1 | inconclusive: 8.36% |  |
| C=CCNC(=O)CCCOc1cc(C)ccc1C | inconclusive: 9.4% |  |

| SMILES | activity change, negative = inhibition | Potency |
| --- | --- | --- |
| COC(=O)c1sc(-c2ccc(Cl)cc2)cc1NC(=O)COCC(=O)O | inconclusive: -0.829% |  |
| CC(C)n1c(SCC(N)=O)nc2c1c(=O)n(C)c(=O)n2C | inconclusive: 0.228% |  |
| COc1ccc(N2CCN(C(=S)Nc3ccccc3)CC2)cc1 | inconclusive: 6.6% |  |
| COc1cccc(-c2cc(C(=O)Nc3ccc(OC)c(OC)c3)no2)c1 |  | inconclusive: 2.51 µM [falling, partial curve, poor fit] |
| Cc1ccc(NC(=O)Cc2ccc([N+](=O)[O-])cc2)c(Br)c1 | inconclusive: 5.11% |  |
| COc1ccc(OCC(=O)N2CCN(C(=O)c3ccco3)CC2)cc1 | inactive: 3.54% |  |
| O=C(O)c1cccc(Nc2nc(Nc3ccccc3)nc(N3CCCC3)n2)c1 |  | inconclusive: 7.94 µM [falling, partial curve, poor fit] |
| CN(C)CCCNc1ncnc2c1cnn2-c1ccccc1 |  | inconclusive: 8.2 µM [rising, partial curve, poor fit] |
| Cc1nc(S(=O)(=O)c2cccc(Cl)c2)nc2c1CCC2 | inactive: -0.187% |  |
| CCCc1nc(SCC(=O)c2ccccc2)c2c(=O)n(C)c(=O)n(C)c2n1 | inconclusive: 12.7% |  |
| COc1cc(NC(=O)COc2ccccc2)c(OC)cc1NC(C)=O |  | inconclusive: 20 µM [falling, partial curve, poor fit] |
| CC(=O)c1cccc(N/C=C\c2nnnn2-c2ccc(F)cc2)c1 | inconclusive: 4.59% |  |
| Cc1c(/C=C/C(=O)c2cccs2)cnn1C |  | inconclusive: 29.1 µM [falling, single point] |
| Cc1cc2nc(-c3ccc(Cl)cc3)cc(C(F)(F)F)n2n1 | inactive: 10.3% |  |
| COc1ccc(C(=O)C2CCCN(Cc3ccc(C#CCCO)cc3)C2)cc1F (stereo not drawn) | inconclusive: 17% |  |
| CC(=O)c1cccc(NC(=O)CSc2nnc3ccc(-c4ccc(C)cc4)nn23)c1 | inconclusive: 5.84% |  |
| COCc1cc(/C=N\NC(=O)Cc2ccc(Cl)cc2)ccc1OC | inconclusive: 0.125% |  |
| CCn1nc(NC(=O)c2ccncc2)c2cc3ccccc3nc21 | inconclusive: 20.7% |  |
| Cc1ccc2nc(SCC(=O)N3CCOCC3)[nH]c2c1 | inconclusive: 17.7% |  |
| O=C(Nc1ccc(Cl)cc1)OCc1ccccn1 |  | inconclusive: 20.6 µM [falling, single point] |
| CCN(CC)S(=O)(=O)c1cc(NC(=O)COC(=O)CCC(=O)c2cccs2)ccc1C | inconclusive: 0.827% |  |
| N#Cc1cc([N+](=O)[O-])ccc1NC(=O)COC(=O)C12CC3CC(CC(C3)C1)C2 |  | inconclusive: 12.6 µM [rising, partial curve, poor fit] |
| COc1ccc(OCC(=O)Nc2c3c(nn2C(C)(C)C)CSC3)cc1 | inconclusive: 16.8% |  |
| COc1ccc(Nc2nnc(-c3ccc(O)cc3)c3ccccc23)cc1C(N)=O |  | inconclusive: 15.8 µM [falling, partial curve] |
| Cc1ccc(C(=O)Oc2cccc(NC(=O)c3ccco3)c2)cc1S(=O)(=O)N1CCC(C)CC1 |  | inconclusive: 18.4 µM [falling, partial curve] |
| CNC(=S)Nc1cc2oc3ccccc3c2cc1OC | inconclusive: 4.69% |  |

3 compounds from above, ordered by heavy-atom count, low to high:

| SMILES | activity change, negative = inhibition | Potency |
| --- | --- | --- |
| COc1ccc(OCC(=O)Nc2c3c(nn2C(C)(C)C)CSC3)cc1 | inconclusive: 16.8% |  |
| N#Cc1cc([N+](=O)[O-])ccc1NC(=O)COC(=O)C12CC3CC(CC(C3)C1)C2 |  | inconclusive: 12.6 µM [rising, partial curve, poor fit] |
| COc1ccc(C(=O)C2CCCN(Cc3ccc(C#CCCO)cc3)C2)cc1F (stereo not drawn) | inconclusive: 17% |  |
